Laboratory results published in PubChem BioAssay AID2517 (National Center for Advancing Translational Sciences (NCATS), 2010).
The whole screen tested about 350,000 compounds, of which about 1,200 (0.34%) were called active. The inconclusive results got no clear call from the source; some entries with a clear call stand among them for comparison. Calls come from the whole dose curve; as a rule, active = well fitted inhibition curve with a large enough effect; inconclusive = small, poorly fitted or top-dose-only effect; inactive = no such curve, though single readings can be large or run the other way. A potency beside an inconclusive call is a rough fit, not a confirmed value.

The chains behind the UniProt entries cited, without tags or fusion partners.
UniProt P27695, whole entry, looked up: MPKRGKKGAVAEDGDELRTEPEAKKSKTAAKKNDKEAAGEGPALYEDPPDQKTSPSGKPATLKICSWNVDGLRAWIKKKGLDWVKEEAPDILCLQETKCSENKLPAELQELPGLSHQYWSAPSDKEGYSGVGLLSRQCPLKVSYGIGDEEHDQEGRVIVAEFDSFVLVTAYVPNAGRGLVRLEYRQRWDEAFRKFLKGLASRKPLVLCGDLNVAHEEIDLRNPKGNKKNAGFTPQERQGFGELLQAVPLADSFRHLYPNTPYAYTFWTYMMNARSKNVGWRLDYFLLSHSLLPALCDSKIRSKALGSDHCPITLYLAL

target: DNA repair nuclease/redox regulator APEX1 (Homo sapiens) (UniProt P27695); assay: qHTS Assay for Inhibitors of the Human Apurinic/apyrimidinic Endonuclease 1 (APE1); settings: recombinant APE1, TAMRA/BHQ-2 abasic DNA cleavage fluorescence; activity change, negative = inhibition: at 65.8 µM (top of the series); note: nearly all actives have a fitted effect of over 55% in size;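 for activity change, negative = inhibition: plate controls were vehicle for no effect and reference inhibitor for full effect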
Procedure, shortened: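 Step 1: APE1 (0.75 nM) with compound, 15 min RT. Step 2: add 50 nM fluorophore/quencher THF duplex. Step 3: three fluorescence reads 60 s apart (525/598 nm); read 3 minus read 1 = reaction progress.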
Potency is the fitted concentration of half-maximal effect.

| Compound | Potency | activity change, negative = inhibition |
| --- | --- | --- |
| CCNC(=O)NC1(C(=O)Nc2ccc3c(c2)CCC3)CCCCC1 | inconclusive: 0.0224 µM [inhibitor, full curve, poor fit] | – |
| COc1ccc(-c2c(C#N)c(N)nc3c2CCc2ccccc2-3)cc1OC | inactive | – |
| COc1cccc(-c2cncnc2Nc2ccc(F)cc2)c1 | inconclusive: 0.891 µM [inhibitor, full curve, poor fit] | – |
| O=C(CCCC(=O)OCC(=O)c1cccs1)Nc1ccc(Oc2ccccc2)cc1 | inconclusive: 4.47 µM [inhibitor, single point] | – |
| Cc1cc2c(c(C)c1Cl)C(c1ccc3c(c1)OCO3)CC(c1ccccc1)O2 (configuration not stated) | inconclusive: 10 µM [inhibitor, single point] | – |
| O=C(CSc1ccc(Cl)cc1)Nc1ccc(-c2nc3ccccc3[nH]2)cc1 | inactive | – |
| O=C1CNC(=O)/C(=C/c2cccs2)N1 | inconclusive: 0.708 µM [inhibitor, full curve, poor fit] | – |
| COc1ccc(NC(=O)c2cc3cccc(OC)c3oc2=Nc2ccc(C(=O)O)cc2)cc1OC | inconclusive: 25.1 µM [inhibitor, partial curve] | – |
| CC1Cc2ccccc2N1C(=O)c1cc2sccc2n1Cc1ccccc1 (configuration not stated) | inconclusive: 7.94 µM [inhibitor, full curve, poor fit] | – |
| Cn1ccnc1SCC(=O)Nc1ccc2c(c1)COC2=O | inconclusive: 12.6 µM [inhibitor, partial curve] | – |
| CC1CCCCN1C(=O)Cn1c(=O)n(-c2ccc(F)cc2)c(=O)c2sccc21 (configuration not stated) | inconclusive: 3.16 µM [inhibitor, single point] | – |
| O=C(NCc1ccco1)c1cccc2c1C(=O)c1ccc(/C=C/c3ccccc3)cc1S2(=O)=O | inconclusive: 21.2 µM [inhibitor, single point] | – |
| COc1cccc(/C=C2\SC(=S)N(C(C(=O)O)c3ccccc3)C2=O)c1OC (configuration not stated) | inconclusive: 10 µM [inhibitor, single point] | – |
| O=C(COC(=O)/C=C/c1ccc(OC(F)F)cc1)Nc1ccc(S(=O)(=O)N2CCCC2)cc1 | inconclusive: 44.7 µM [inhibitor, single point] | – |
| CC#CCN1c2ccccc2[C@]23C[C@@H](C(=O)OC)N(S(=O)(=O)c4c(C)noc4C)C2=NC(C(=O)OC)=C(C(=O)OC)[C@H]13 | – | inactive: -5.22% [at 12.4 µM] |
| CC(=O)c1ccc(NC(=O)COC(=O)c2c3c(nc4ccccc24)/C(=C\c2cccs2)CCC3)cc1 | inconclusive: 25.1 µM [inhibitor, single point] | – |
| CCCCCOc1ccc(/C=c2\sc3nc(=O)c(-c4ccccc4)nn3c2=O)cc1OC | inconclusive: 12.6 µM [inhibitor, partial curve] | – |
| COc1ccc(NC(=O)c2cc([N+](=O)[O-])ccc2NC(=O)CNCc2ccccn2)c(OC)c1 | inactive | – |
| CCOC(=O)Cn1c(C)c(Br)c(=O)c2cccc(C)c21 | inconclusive: 0.316 µM [inhibitor, full curve, poor fit] | – |
| CC(/C=N/n1c(-c2ccccn2)n[nH]c1=S)=C\c1ccccc1 | inconclusive: 3.55 µM [inhibitor, single point] | – |
| CCc1nnc(NC(=O)c2sc3nc(C)cc(COC)c3c2N)s1 | inconclusive: 2.82 µM [inhibitor, partial curve, poor fit] | – |
| CCOC(=O)Cc1[nH]nc2c1C(c1cc(OC)ccc1OC)C(C#N)=C(N)O2 (configuration not stated) | inconclusive: 22.4 µM [inhibitor, single point] | – |
| CC(C)c1c(O)nc(SCCOc2ccc(Cl)cc2)[nH]c1=O | inconclusive: 31.6 µM [inhibitor, single point] | – |

| Compound | Potency | activity change, negative = inhibition |
| --- | --- | --- |
| CC(C)(C)NC(=O)c1cc(F)c(F)cc1Cl | active: 7.08 µM | – |
| COC(=O)c1ccc2c(=O)n(CCCCCC(=O)NCCNC(C)=O)c(=O)[nH]c2c1 | inconclusive: 25.1 µM [inhibitor, single point] | – |
| Brc1ccc(-c2cnc3n2CCCC3)cc1 | inconclusive: 6.31 µM [inhibitor, single point] | – |
| O=C(Nc1nc(-c2ccco2)cs1)c1ccccc1 | inconclusive: 3.98 µM [inhibitor, single point] | – |
| C=CCc1ccc(O)c(-c2ccc(O)c(CC=C)c2)c1 | inconclusive: 15.8 µM [inhibitor, partial curve, poor fit] | – |
| CC(=O)c1ccc(NC(=O)CSc2ccsc2[N+](=O)[O-])cc1 | inconclusive: 28.2 µM [inhibitor, partial curve] | – |
| CN1c2ccccc2C(=O)/C(=C\Nc2ccc(F)cc2F)S1(=O)=O | inconclusive: 3.16 µM [inhibitor, single point] | – |
| Cc1nn(-c2ccccc2)c2sc(C(=O)NCCN3CCOCC3)cc12 | inactive | – |
| Cc1ccc(N=CC2=C(O)CC(c3ccccc3Cl)CC2=O)cc1 (configuration not stated) | inconclusive: 3.55 µM [inhibitor, single point] | – |
| Cc1ccc(S(=O)(=O)C2(C(=O)Nc3nccs3)CC2)cc1 | inconclusive: 28.2 µM [inhibitor, single point] | – |
| COCCCNc1nc2ccccc2nc1NS(=O)(=O)c1ccc(Cl)cc1 | inconclusive: 3.77 µM [inhibitor, single point] | – |
| Cc1cccc(N2NC(=O)/C(=C/c3ccc(-c4ccc(Cl)c(C(=O)O)c4)o3)C2=O)c1 | active: 17.8 µM | – |
| O=C(COc1ccccc1C(=O)Nc1ccccc1)NCCc1ccccc1 | inconclusive: 39.8 µM [inhibitor, single point] | – |
| NC(=O)c1ccc(N=Cc2ccc([N+](=O)[O-])s2)cc1 | inconclusive: 39.8 µM [inhibitor, single point] | – |
| Cc1cc(/C=N/NC(=O)C(O)(c2ccccc2)c2ccccc2)c(C)n1-c1ccc(C(=O)O)cc1 | inconclusive: 31.6 µM [inhibitor, single point] | – |
| Cc1ccc(S(=O)(=O)Nc2cc(=O)[nH]c(SCC(=O)Nc3cccc(C)c3)n2)cc1 | inactive | – |
| Cc1nn(-c2ccc(F)cc2)c(N)c1C1(O)C(=O)Nc2ccccc21 (configuration not stated) | inconclusive: 0.0398 µM [inhibitor, full curve, poor fit] | – |
| C=CCN1C(=O)C(CC(=O)Nc2ccc(OC)cc2)SC1=Nc1ccc(S(N)(=O)=O)cc1 (configuration not stated) | inconclusive: 35.5 µM [inhibitor, single point] | – |
| O=C(NNc1nc2c(F)cccc2s1)c1cc(=O)c2ccccc2o1 | inactive | – |
| COC(=O)c1ccc(N/N=C/c2cc([N+](=O)[O-])cc(OC)c2O)cc1 | inactive | – |
| O=C(/C=C/c1ccco1)Nc1ccc(-c2nc3ccccc3[nH]2)cc1 | inconclusive: 28.2 µM [inhibitor, single point] | – |
| Nc1ccc(O)c2c1C(=O)c1ccccc1C2=O | inactive | – |
| Cc1nc(C)c(C(=O)Nc2nc3c(C)cccc3s2)o1 | inconclusive: 39.8 µM [inhibitor, single point] | – |

| Compound | Potency | activity change, negative = inhibition |
| --- | --- | --- |
| COc1ccc(C2c3cc(OC)c(OC)cc3Cc3c4cc(OC)c(OC)cc4cc[n+]32)cc1OC (configuration not stated) | inconclusive: 25.1 µM [inhibitor, partial curve] | – |
| CC(O)CNc1nc(Cl)c(C#N)s1 (configuration not stated) | inconclusive: 3.55 µM [inhibitor, single point] | – |
| O=C(CCNC(=O)c1ccccc1)Nc1cccnc1 | inconclusive: 20 µM [inhibitor, single point] | – |
| COc1ccc2nc(C)cc(SCC(=O)N/N=C/c3ccc(O)c(O)c3)c2c1 | inconclusive: 0.708 µM [inhibitor, full curve] | – |
| O=C(Nc1nc(-c2cccs2)c(C(=O)C(F)(F)F)s1)c1ccccc1 | inactive | – |
| CCN1CCN(C(=O)c2cc3cc([N+](=O)[O-])ccc3oc2=O)CC1 | inactive | – |
| O=C(/C=C/c1ccc(S(=O)(=O)NCc2ccco2)cc1)NCc1cccc(Cl)c1 | inactive | – |
| N[C@H](Cc1ccccc1)C(=O)O | inconclusive: 39.8 µM [inhibitor, single point] | – |
| COCCN(Cc1cc2c(C)cc(C)cc2nc1Cl)C(=O)c1ccccc1F | inconclusive: 0.0224 µM [inhibitor, full curve] | – |
| Cc1c(Cl)c(C(=O)NNC(=S)Nc2ccccc2)nn1C | inactive | – |
| CCOC(=O)Nc1ccc2c(c1)N(C(=O)CCN1CCOCC1)c1ccccc1S2 | inactive | – |
| Cc1cc[n+](-c2nc([O-])sc2/C=N/Nc2ccc([N+](=O)[O-])cc2)cc1 | inconclusive: 2.24 µM [inhibitor, partial curve] | – |
| Nc1cc2nsnc2cc1Br | inconclusive: 28.2 µM [inhibitor, partial curve] | – |
| COc1ccc(OCC(=O)N2CCN(c3cccc(C(F)(F)F)c3)CC2)cc1 | inconclusive: 35.5 µM [inhibitor, single point] | – |
| CCCCN1CC(=O)N2[C@H]3c4cc(Cl)ccc4OC[C@@H]3[C@H](C(=O)OCC)[C@]2(C)C1=O | inconclusive: 8.44 µM [inhibitor, single point] | – |
| CN(C)CCCNCCCNC(=O)/C(=N\O)c1ccccc1 | inactive | – |
| CCOC(=O)c1cnc2ccccc2c1NCCO | inconclusive: 44.7 µM [inhibitor, single point] | – |
| NC(=O)c1cc(N)ccc1N1CCCCC1 | inactive | – |
| O=C(CCC(=O)Nc1cccc(Cl)c1)N/N=C/c1cc([N+](=O)[O-])ccc1O | inactive | – |
| COc1cc(-c2cc(C(=O)Nc3ccc(S(=O)(=O)NCc4ccco4)cc3)c3ccccc3n2)cc(OC)c1OC | inconclusive: 56.2 µM [inhibitor, partial curve, poor fit] | – |
| COc1ccc(NC(=S)Nc2ccccc2)c(OC)c1 | inconclusive: 8.91 µM [inhibitor, single point] | – |

Reformatted: results already given
Compound	Potency	activity change, negative = inhibition
Cc1cc[n+](-c2nc([O-])sc2/C=N/Nc2ccc([N+](=O)[O-])cc2)cc1	inconclusive: 2.24 µM [inhibitor, partial curve]	–
Nc1cc2nsnc2cc1Br	inconclusive: 28.2 µM [inhibitor, partial curve]	–
COc1ccc(OCC(=O)N2CCN(c3cccc(C(F)(F)F)c3)CC2)cc1	inconclusive: 35.5 µM [inhibitor, single point]	–
CCCCN1CC(=O)N2[C@H]3c4cc(Cl)ccc4OC[C@@H]3[C@H](C(=O)OCC)[C@]2(C)C1=O	inconclusive: 8.44 µM [inhibitor, single point]	–
